# Measured values as given in PMC11284787, “Ligand-Directed Labeling of the Adenosine A1 Receptor in Living Cells” (Journal of Medicinal Chemistry, 2024).
# Tested on: T1, SNAP-hA1AR
# T1 construct: expressed in transfected cells; host or cells: HEK293T, transient transfection (FuGENE HD)
# Assay: Fluorescence correlation spectroscopy on SNAP-hA1AR HEK293T cell membranes
# Format: cell-based, human
# Settings: 100 nM 90 min, apical membrane
smiles,measurement,value
"CCCCn1c(=O)c2[nH]c(C34CCC(C(=O)NCCNC(=O)CCNC(=O)c5ccc(OC(=O)CCCCC[N+]6=C(/C=C/C=C/C=C7/N(C)c8ccc(S(=O)(=O)O)cc8C7(C)C)C(C)(C)c7cc(S(=O)(=O)[O-])ccc76)c(F)c5)(CC3)CC4)nc2n(CCCC)c1=O [Compound 11, 1-(6-(4-((3-((2-(4-(1,3-Dibutyl-2,6-dioxo-2,3,6,7-tetrahydro-1H-purin-8-yl)bicyclo[2.2.2]octane-1-carboxamido)ethyl)amino)-3-oxopropyl)carbamoyl)-2-fluorophenoxy)-6-oxohexyl)-3,3-dimethyl-2-((1E,3E)-5-((E)-1,3,3-trimethyl-5-sulfoindolin-2-ylidene)penta-1,3-dien-1-yl)-3H-indol-1-ium-5-sulfonate]",diffusion coefficient of SulfoCy5-A1AR,0.29 ± 0.01 μm^2/s
same,slower 2D component dwell time (SulfoCy5 bound A1AR),55.4 ± 1.93 ms
